Substitutions are numbered along the chain they refer to. Numbers in names are those of the source. These are yes or no findings as the source states them, for the method shown. Some entries that bind do so weakly or less than the wild type. Each block holds one binder with its values, some of them ahead of it.
Assays:
PCSK9 [1] = molecular target: PCSK9 (UniProt Q8NBP7); test: potency assay by binding to PCSK9 (FIG. 4)
PCSK9 [2] = molecular target: PCSK9 (UniProt Q8NBP7); test: ELISA, PCSK9 coated as capture reagent, anti-human IgG HRP detection

Chains of the proteins cited; added tags and fusions are not shown. Residues count along the entry.
UniProt Q8NBP7, residues 31-692: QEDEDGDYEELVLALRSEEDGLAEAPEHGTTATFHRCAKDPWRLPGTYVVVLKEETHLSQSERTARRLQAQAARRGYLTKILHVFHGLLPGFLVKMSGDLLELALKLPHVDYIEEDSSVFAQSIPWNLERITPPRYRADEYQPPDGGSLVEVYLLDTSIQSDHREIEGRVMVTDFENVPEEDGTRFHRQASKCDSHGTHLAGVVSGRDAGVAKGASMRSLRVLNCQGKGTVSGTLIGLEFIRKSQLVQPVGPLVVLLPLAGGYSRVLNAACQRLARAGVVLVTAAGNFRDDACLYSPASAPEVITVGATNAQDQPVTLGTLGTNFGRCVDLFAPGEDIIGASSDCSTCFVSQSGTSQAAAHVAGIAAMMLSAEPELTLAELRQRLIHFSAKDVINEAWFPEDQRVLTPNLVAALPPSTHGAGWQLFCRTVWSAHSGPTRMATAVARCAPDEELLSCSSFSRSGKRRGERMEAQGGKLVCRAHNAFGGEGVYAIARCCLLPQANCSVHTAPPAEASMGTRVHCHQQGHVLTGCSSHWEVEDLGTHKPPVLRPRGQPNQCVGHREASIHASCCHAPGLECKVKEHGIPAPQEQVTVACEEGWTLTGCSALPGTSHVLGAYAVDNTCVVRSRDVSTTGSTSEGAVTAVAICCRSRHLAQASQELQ

- binding (PCSK9 [1]): binds
- binding (PCSK9 [2]): binds
B1: AK (82 94 95) mutant (antibody)
heavy: EVQLVQSGAEVKKPGASVKVSCKASGYTLTSYGISWVRQAPGQGLEWMGWVSFYNGNTNYAQKLQGRGTMTRDPSTSTAYMELSRLRSDDTAVYYCARGYGMDVWGQGTTVTVSSASTKGPSVFPLAPCSRSTSESTAALGCLVKDYFPEPVTVSWNSGALTSGVHTFPAVLQSSGLYSLSSVVTVPSSNFGTQTYTCNVDHKPSNTKVDKTVERKCCVECPPCPAPPVAGPSVFLFPPKPKDTLMISRTPEVTCVVVDVSHEDPEVQFNWYVDGVEVHNAKTKPREEQFNSTFRVVSVLTVVHQDWLNGKEYKCKVSNKGLPAPIEKTISKTKGQPREPQVYTLPPSREEMTKNQVSLTCLVKGFYPSDIAVEWESNGQPENNYKTTPPMLDSDGSFFLYSKLTVDKSRWQQGNVFSCSVMHEALHNHYTQKSLSLSPGK
light: ESALTQPASVSGSPGQSITISCTGTSSDVGGYNSVSWYQQHPGKAPKLMIYEVSNRPSGVSNRFSGSKSGNTASLTISGLQAEDEADYYCNSYTSTSMVFGGGTKLTVLGQPKAAPSVTLFPPSSEELQANKATLVCLISDFYPGAVTVAWKADSSPVKAGVETTTPSKQSNNKYAASSYLSLTPEQWKSHRSYSCQVTHEGSTVEKTVAPTECS

- binding (PCSK9 [2]): binds
B2: AK Fab/S440K double mutant (antibody)
heavy: B1 heavy with S434K
light: B1 light
